Reference: patent publication US7244836
These are yes or no findings as the source states them, for the method shown. Some entries that bind do so weakly or less than the wild type.

The chains behind the UniProt entries cited, without tags or fusion partners. Where a name states a change or a piece, a line headed by the entry shows the natural chain unless it says otherwise.
UniProt P04386: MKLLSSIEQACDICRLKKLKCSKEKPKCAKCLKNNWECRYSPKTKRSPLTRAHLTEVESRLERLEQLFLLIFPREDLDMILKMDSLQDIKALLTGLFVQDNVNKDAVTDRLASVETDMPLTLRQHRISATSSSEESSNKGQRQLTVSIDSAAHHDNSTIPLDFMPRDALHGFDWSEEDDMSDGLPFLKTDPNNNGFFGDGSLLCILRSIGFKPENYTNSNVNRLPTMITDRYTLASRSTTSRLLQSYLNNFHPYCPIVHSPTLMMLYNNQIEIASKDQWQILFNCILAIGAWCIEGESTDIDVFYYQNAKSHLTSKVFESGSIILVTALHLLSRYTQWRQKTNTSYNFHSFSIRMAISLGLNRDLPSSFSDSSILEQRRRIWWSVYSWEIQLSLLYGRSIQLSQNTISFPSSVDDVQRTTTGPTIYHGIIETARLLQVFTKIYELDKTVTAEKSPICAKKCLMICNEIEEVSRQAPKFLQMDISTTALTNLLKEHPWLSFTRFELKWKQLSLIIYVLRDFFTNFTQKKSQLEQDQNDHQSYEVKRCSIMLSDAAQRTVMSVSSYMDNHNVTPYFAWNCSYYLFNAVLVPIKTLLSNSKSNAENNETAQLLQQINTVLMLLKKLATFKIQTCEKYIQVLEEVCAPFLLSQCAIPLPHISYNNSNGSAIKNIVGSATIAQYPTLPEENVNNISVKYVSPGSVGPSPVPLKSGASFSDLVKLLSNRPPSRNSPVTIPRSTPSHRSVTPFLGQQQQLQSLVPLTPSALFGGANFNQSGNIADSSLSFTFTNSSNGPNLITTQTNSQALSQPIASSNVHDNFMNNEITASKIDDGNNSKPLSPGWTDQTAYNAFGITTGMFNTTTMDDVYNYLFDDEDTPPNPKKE
UniProt P20333: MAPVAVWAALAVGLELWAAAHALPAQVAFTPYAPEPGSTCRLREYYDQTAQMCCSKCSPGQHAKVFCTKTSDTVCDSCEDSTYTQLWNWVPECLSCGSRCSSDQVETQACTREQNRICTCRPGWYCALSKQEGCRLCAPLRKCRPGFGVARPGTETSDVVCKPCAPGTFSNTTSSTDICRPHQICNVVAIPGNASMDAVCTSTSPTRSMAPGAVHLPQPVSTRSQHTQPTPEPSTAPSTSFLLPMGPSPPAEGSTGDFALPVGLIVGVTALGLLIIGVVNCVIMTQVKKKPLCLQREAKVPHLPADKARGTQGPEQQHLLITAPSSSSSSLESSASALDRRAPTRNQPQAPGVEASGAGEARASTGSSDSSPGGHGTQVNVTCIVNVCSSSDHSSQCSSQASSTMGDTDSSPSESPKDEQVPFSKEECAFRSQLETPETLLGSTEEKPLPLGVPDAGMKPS
UniProt P25119: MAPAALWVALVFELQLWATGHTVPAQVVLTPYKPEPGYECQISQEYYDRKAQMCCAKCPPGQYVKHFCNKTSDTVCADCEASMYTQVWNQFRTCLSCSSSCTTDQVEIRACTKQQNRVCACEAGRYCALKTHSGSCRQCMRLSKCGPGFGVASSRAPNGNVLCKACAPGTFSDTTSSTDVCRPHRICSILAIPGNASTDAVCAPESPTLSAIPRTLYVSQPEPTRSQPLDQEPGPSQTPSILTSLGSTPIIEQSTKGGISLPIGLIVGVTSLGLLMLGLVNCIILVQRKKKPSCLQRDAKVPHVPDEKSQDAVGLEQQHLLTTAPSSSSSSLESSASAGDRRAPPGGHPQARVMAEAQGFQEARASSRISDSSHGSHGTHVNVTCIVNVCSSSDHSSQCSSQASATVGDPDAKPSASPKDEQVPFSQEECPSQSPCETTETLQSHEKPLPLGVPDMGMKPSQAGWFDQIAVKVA

Key:
[1] = biological target: T1, GAL4 DNA-binding domain fused to the intracellular domain of human TNF-R2 (yeast; human) (UniProt P04386+P20333); assay: yeast three-component assay with NLS-TRAF2 expressed directly; growth on trp- leu- his- medium with 20 mM 3-aminotriazole
[2] = biological target: T2, GAL4 DNA-binding domain fused to the intracellular domain of the murine TNF-R2 (yeast; murine) (UniProt P04386+P25119); assay: as above
[3] = biological target: T1, GAL4 DNA-binding domain fused to the intracellular domain of human TNF-R2 (yeast; human); assay: yeast three-component assay; the filing reads it as a heterodimeric complex of TRAF1 and TRAF2 interacting with the intracellular domain of TNF-R2
[4] = biological target: T2, GAL4 DNA-binding domain fused to the intracellular domain of the murine TNF-R2 (yeast; murine); assay: as above

- binding [1]: binds
- binding [2]: binds
- binding [3]: binds
- binding [4]: binds
B1: GAL4(TA)-TRAF1 co-expressed with NLS-TRAF2 (heterodimeric complex of TRAF1 and TRAF2) (protein, not shown: large carriers)
chain 1: ASSSAPDENEFQFGCPPAPCQDPSEPRVLCCTACLSENLRDDEDRICPKCRADNLHPVSPGSPLTQEKVHSDVAEAEIMCPFAGVGCSFKGSPQSMQEHEATSQSSHLYLLLAVLKEWKSSPGSNLGSAPMALERNLSELQLQAAVEATGDLEVDCYRAPCCESQEELALQHLVKEKLLAQLEEKLRVFANIVAVLNKEVEASHLALAASIHQSQLDREHLLSLEQRVVELQQTLAQKDQVLGKLEHSLRLMEEASFDGTFLWKITNVTKRCHESVCGRTVSLFSPAFYTAKYGYKLCLRLYLNGDGSGKKTHLSLFIVIMRGEYDALLPWPFRNKVTFMLLDQNNREHAIDAFRPDLSSASFQRPQSETNVASGCPLFFPLSKLQSPKHAYVKDDTMFLKCIVDTSA
chain 2: MPKKKRKVAAASVTSPGSLELLQPGFSKTLLGTRLEAKYLCSACKNILRRPFQAQCGHRYCSFCLTSILSSGPQNCAACVYEGLYEEGISILESSSAFPDNAARREVESLPAVCPNDGCTWKGTLKEYESCHEGLCPFLLTECPACKGLVRLSEKEHHTEQECPKRSLSCQHCRAPCSHVDLEVHYEVCPKFPLTCDGCGKKKIPRETFQDHVRACSKCRVLCRFHTVGCSEMVETENLQDHELQRLREHLALLLSSFLEAQASPGTLNQVGPELLQRCQILEQKIATFENIVCVLNREVERVAVTAEACSRQHRLDQDKIEALSNKVQQLERSIGLKDLAMADLEQKVSELEVSTYDGVFIWKISDFTRKRQEAVAGRTPAIFSPAFYTSRYGYKMCLRVYLNGDGTGRGTHLSLFFVVMKGPNDALLQWPFNQKVTLMLLDHNNREHVIDAFRPDVTSSSFQRPVSDMNIASGCPLFCPVSKMEAKNSYVRDDAIFIKAIVDLTGL
